Data on two substances can be found in article PMC4132714, “Phospho-dependent and phospho-independent interactions of the helicase UPF1 with the NMD factors SMG5–SMG7 and SMG6” (Nucleic Acids Research, 2014).

Results are given in words; binding and its absence hold for the method and conditions named. A result given as binding can be weak or reduced; the word gives no strength. Tags and fused reporters may be left off the sequences shown.

Assay [1] concerns the target T1, GST-UPF1fl, unphosphorylated (mock-treated with SMG1 KD or not treated) (human) (UniProt Q92900).
T1 sequence: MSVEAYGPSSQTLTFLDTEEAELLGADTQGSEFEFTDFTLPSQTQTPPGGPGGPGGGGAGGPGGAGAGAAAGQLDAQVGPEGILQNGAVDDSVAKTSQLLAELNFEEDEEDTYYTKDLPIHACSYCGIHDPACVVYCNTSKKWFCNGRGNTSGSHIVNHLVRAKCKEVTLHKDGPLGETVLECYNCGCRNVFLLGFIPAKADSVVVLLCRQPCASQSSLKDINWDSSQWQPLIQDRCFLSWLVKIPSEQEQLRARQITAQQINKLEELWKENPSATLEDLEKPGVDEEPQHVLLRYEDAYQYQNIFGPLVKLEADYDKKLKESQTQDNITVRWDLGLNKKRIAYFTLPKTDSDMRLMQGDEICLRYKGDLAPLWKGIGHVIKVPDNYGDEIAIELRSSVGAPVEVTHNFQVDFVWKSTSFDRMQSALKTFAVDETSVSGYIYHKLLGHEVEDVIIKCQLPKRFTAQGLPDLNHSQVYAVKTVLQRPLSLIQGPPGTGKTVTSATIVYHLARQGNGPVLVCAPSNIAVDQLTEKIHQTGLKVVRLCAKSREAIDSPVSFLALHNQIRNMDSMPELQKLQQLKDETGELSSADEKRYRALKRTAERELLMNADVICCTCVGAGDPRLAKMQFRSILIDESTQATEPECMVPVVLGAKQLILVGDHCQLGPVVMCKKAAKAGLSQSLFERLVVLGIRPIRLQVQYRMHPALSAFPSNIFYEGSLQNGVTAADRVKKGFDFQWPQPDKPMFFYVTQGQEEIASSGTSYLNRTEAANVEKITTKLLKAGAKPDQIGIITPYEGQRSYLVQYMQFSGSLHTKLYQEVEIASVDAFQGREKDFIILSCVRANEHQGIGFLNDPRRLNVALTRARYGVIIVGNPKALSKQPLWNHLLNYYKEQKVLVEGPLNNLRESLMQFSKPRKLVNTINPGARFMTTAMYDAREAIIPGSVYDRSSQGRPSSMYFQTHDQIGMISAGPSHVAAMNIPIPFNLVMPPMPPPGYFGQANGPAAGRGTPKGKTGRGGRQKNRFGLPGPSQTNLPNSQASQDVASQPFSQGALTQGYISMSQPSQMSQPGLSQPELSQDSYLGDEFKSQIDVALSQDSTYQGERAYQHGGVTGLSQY
Briefly: pull-down; GST pull-down as in Figure 1C with GST-UPF1fl as bait and several preys added together (SMG6fl, UPF2, UPF3, EJC; or SMG6fl and SMG5–7 TPR after treatment with SMG1 wt or KD); Coomassie; both purified.

In assay [2] the target is T1, GST-UPF1fl, unphosphorylated (mock-treated with SMG1 KD or not treated) (human). Put plainly: pull-down; GST pull-down, one prey: ∼2 μg GST-tagged bait with equal amount of untagged prey in 20 mM HEPES pH 7.5, 125 mM NaCl, 2% glycerol, 2 mM DTT (45 μl), 45 min at room temperature; glutathione–Sepharose beads in 20 mM HEPES pH 7.5, 150 mM NaCl, 10% glycerol, 2 mM DTT, 0.1% NP-40, 1 h at 4°C; eluted with glutathione; SDS-PAGE, Coomassie; GST-UPF1 constructs pre-treated with SMG1 wt or SMG1 KD where indicated; both purified.

In the case of “UPF2 with the RRM domain of UPF3 (complex)”, the binding result in assay [1] is “binds”.

As for UPF2–UPF3 (complex), the binding entry in assay [1] and in assay [2] was “binds” in each case.
